# Results: article PMC7819943, “Rice protein-binding microarrays: a tool to detect cis-acting elements near promoter regions in rice”
# Chains of the proteins cited; added tags and fusions are not shown.
# UniProt Q0JBA9, entry or part of it: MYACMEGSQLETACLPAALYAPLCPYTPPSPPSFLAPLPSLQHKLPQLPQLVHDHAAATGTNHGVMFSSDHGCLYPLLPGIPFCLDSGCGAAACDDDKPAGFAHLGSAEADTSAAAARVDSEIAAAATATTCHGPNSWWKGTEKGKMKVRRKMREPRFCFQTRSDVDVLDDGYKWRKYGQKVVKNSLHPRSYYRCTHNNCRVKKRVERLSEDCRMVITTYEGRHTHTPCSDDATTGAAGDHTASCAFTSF
# Some of the results follow.
# Molecular target: OsWRKY34 (Oryza sativa, UniProt Q0JBA9 1-250)
# Test: protein-binding microarray (RPBM); PBS, 2% BSA, 51.3 ng/ul salmon testes DNA, 50 uM zinc acetate, 200 nM TF, 25 C, 1 h; high values mean tight binding
# Conditions: protein: recombinant; tags: N-terminal polyhistidine and DsRed monomer fusion (pET32a); label: CyDye5-dUTP incorporated in the synthesized complementary strand; 3' TTTTT single-stranded linker to array surface; dsDNA, one strand shown
# Method in brief: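 The binding signal is fluorescence intensity per array feature (arbitrary units). Readings came from an Axon 4000B scanner after a washed, 2% BSA-blocked, double-stranded custom Agilent array had been incubated for 1 h at 25 °C with 200 nM protein and 50 µM zinc acetate. The protein was a Ni–NTA-purified transcription factor fused N-terminally to polyhistidine and DsRed, expressed in E. coli BL21-CodonPlus.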
row,Sequence,binding signal
1,CCTTTGCTGCTAATTGTACATGGTTATGGTATGGTATGTTCGGAGTCACCTAGTGCAG,8030 fluorescence intensity (a.u.)
2,ATCATACGCTAATAGCTTTTTGTTTTTCGTGACCTTACTTCGGAGTCACCTAGTGCAG,11800 fluorescence intensity (a.u.)
3,CTACTACTCTACTAGTCCTACCCCTACCCTACCCTACGGCCGGAGTCACCTAGTGCAG,8280 fluorescence intensity (a.u.)
4,GACATGAACTCCGTGTACCTTTATTTTTGCTTGTGAACATCGGAGTCACCTAGTGCAG,13500 fluorescence intensity (a.u.)
5,GTGGCTGGCGTCTCCCGTCTACTACCGTATTTCTCCTTTCCGGAGTCACCTAGTGCAG,9810 fluorescence intensity (a.u.)
6,CAGCGACTATAAATACGGCCTCGACTCCGGACACCTTCTTCGGAGTCACCTAGTGCAG,8480 fluorescence intensity (a.u.)
7,GAAGTACAACCCAACGCACACCTTTTCAGTTGTATTAAGACGGAGTCACCTAGTGCAG,8110 fluorescence intensity (a.u.)
8,GAGAGGATGGAGGTGGATGAGGGAGAGGGGCGGGAGACCGCGGAGTCACCTAGTGCAG,9460 fluorescence intensity (a.u.)
9,AGATCACAAACATGAAATCCACTATTGTCTATCTCAACATCGGAGTCACCTAGTGCAG,9210 fluorescence intensity (a.u.)
10,GGATGGGCATGGAGGAGGTGCAGTGAGTGGAGCTGGAGGACGGAGTCACCTAGTGCAG,8730 fluorescence intensity (a.u.)
11,GACTGCTCTCTCCGGCCTTCGACGAGCATTCCTGCCGTTCCGGAGTCACCTAGTGCAG,9070 fluorescence intensity (a.u.)
12,CGTACCGCTCCCATCCACGGAAACCGCATGCGCCATCATCCGGAGTCACCTAGTGCAG,8410 fluorescence intensity (a.u.)
13,TTATGAGGGTAAGTTTGTATTTGTCATATTTGGGTTGCTACGGAGTCACCTAGTGCAG,8110 fluorescence intensity (a.u.)
14,TGCTGTTACGCTCTCTTGAGTGTGGTTCTATTGCTTTCGTCGGAGTCACCTAGTGCAG,8900 fluorescence intensity (a.u.)
15,CCTGCTCCGCCGTTCTCCTCGTCGCCCAATGCTGCGGCGCCGGAGTCACCTAGTGCAG,10300 fluorescence intensity (a.u.)
16,GATATTCAATCACCACATATGCCTTGTTTATTAGTATTACCGGAGTCACCTAGTGCAG,8630 fluorescence intensity (a.u.)
17,CTGACAATCACACACACGACAATGCACGCACGCGCACAACCGGAGTCACCTAGTGCAG,8390 fluorescence intensity (a.u.)
18,CTCTCGACGGCTCTCTCCTCTCCGTCTGTCTATAGCTACTCGGAGTCACCTAGTGCAG,10500 fluorescence intensity (a.u.)
19,CTTTCTTCTGTGTGGTGGGTTTTAGCCGGTTTCTCGCAATCGGAGTCACCTAGTGCAG,18400 fluorescence intensity (a.u.)
20,GAGTATAGCTGGGTGGGGTAGTAACCCATTCGGAAAACCCCGGAGTCACCTAGTGCAG,9710 fluorescence intensity (a.u.)
21,TCCTACGTTTTCTCAATCCTGTGATTCAAAAGGGCCCTTACGGAGTCACCTAGTGCAG,8790 fluorescence intensity (a.u.)

row,Sequence,binding signal
1,CTATCTTCTCCATTCATCCCATACTCTCCCACCCACGTTCCGGAGTCACCTAGTGCAG,9210 fluorescence intensity (a.u.)
2,GGCCCACACCACCTGGATACCGAAACGCCCTCGGGACGATCGGAGTCACCTAGTGCAG,8100 fluorescence intensity (a.u.)
3,AAAGTACTGTTAGATATTCATGGTCAAGCCTCGTTTTTTTCGGAGTCACCTAGTGCAG,9720 fluorescence intensity (a.u.)
4,TAATTGGGGTGATGTGGCTAATTCTCAAAGCAGTTTTATACGGAGTCACCTAGTGCAG,9290 fluorescence intensity (a.u.)
5,GTTTCCTTCTCTTTCCTCATTTATTTACTTGCCACATCATCGGAGTCACCTAGTGCAG,10500 fluorescence intensity (a.u.)
6,CTCTCTTTCTTCTTTGTGTCTTTGTTTCTTTTCTTTTTTCCGGAGTCACCTAGTGCAG,14700 fluorescence intensity (a.u.)
7,GGATGGTCGATTCTTCATCCTTTCGTTTTGCTTGCTGTGGCGGAGTCACCTAGTGCAG,9840 fluorescence intensity (a.u.)
8,CCATACGCAACAACAATGTTAATTTCTGTTTTATTTCCTTCGGAGTCACCTAGTGCAG,10400 fluorescence intensity (a.u.)
9,TATGCTCGGTGTGTTTATCATTGGTGTGATTGTGTATAGTCGGAGTCACCTAGTGCAG,10300 fluorescence intensity (a.u.)
10,ACTTTTCGCTTTTTATATTTGCATAATTTTTTTCAATAAGCGGAGTCACCTAGTGCAG,8150 fluorescence intensity (a.u.)
11,AGCCCAAAACCACTACACTTTTTTTTTTGTCCCTGATGCTCGGAGTCACCTAGTGCAG,10800 fluorescence intensity (a.u.)
12,TTAATATTTATGCATTTATAGTCTTATGTTTTGACCAGCACGGAGTCACCTAGTGCAG,8500 fluorescence intensity (a.u.)
13,GGCATTCTCTGTACTTTGGCTGTCACGCACGCACGCGTGGCGGAGTCACCTAGTGCAG,9760 fluorescence intensity (a.u.)
14,CCTTTTCTCCATCCGCCTCTTTCTTTTTTTCTCTCTCGCTCGGAGTCACCTAGTGCAG,8360 fluorescence intensity (a.u.)
15,CCAACTCGCGCAACTGATTTTGTGTTTTTGTTTGGCTCATCGGAGTCACCTAGTGCAG,9090 fluorescence intensity (a.u.)
16,TCCGTATTTTAATTAACGACGTCGTTGACTTTTTAACCACCGGAGTCACCTAGTGCAG,24200 fluorescence intensity (a.u.)
17,CTTAGGTCAACACCGAAAACTAATCACCATGTTGACTTTGCGGAGTCACCTAGTGCAG,9710 fluorescence intensity (a.u.)
18,CCATTCCTGCTTCCGCCCTTGTATATGTATCGACTTGTCACGGAGTCACCTAGTGCAG,9190 fluorescence intensity (a.u.)
19,TACCCCTCCGTTTCATATGATAAGTTGTTTGACTTTTTTTCGGAGTCACCTAGTGCAG,14300 fluorescence intensity (a.u.)
20,GAGAGCTATGTTAACCATTTGTGTTTTTGCAGTATCATAACGGAGTCACCTAGTGCAG,8580 fluorescence intensity (a.u.)
21,ACCTGTCCCCAACCGAAAAGGCAAAATTGACGCCCAAACTCGGAGTCACCTAGTGCAG,8580 fluorescence intensity (a.u.)

# Rewritten with tabs: entries from further up
row	Sequence	binding signal
6	CAGCGACTATAAATACGGCCTCGACTCCGGACACCTTCTTCGGAGTCACCTAGTGCAG	8480 fluorescence intensity (a.u.)
10	GGATGGGCATGGAGGAGGTGCAGTGAGTGGAGCTGGAGGACGGAGTCACCTAGTGCAG	8730 fluorescence intensity (a.u.)
14	TGCTGTTACGCTCTCTTGAGTGTGGTTCTATTGCTTTCGTCGGAGTCACCTAGTGCAG	8900 fluorescence intensity (a.u.)
7	GGATGGTCGATTCTTCATCCTTTCGTTTTGCTTGCTGTGGCGGAGTCACCTAGTGCAG	9840 fluorescence intensity (a.u.)
12	TTAATATTTATGCATTTATAGTCTTATGTTTTGACCAGCACGGAGTCACCTAGTGCAG	8500 fluorescence intensity (a.u.)

# Additional entries.

row,Sequence,binding signal
1,TCCTCGCGCCGCCATAAATCCTCGTCTCCCGTACCAACTACGGAGTCACCTAGTGCAG,10500 fluorescence intensity (a.u.)
2,TTTTTTCGACCGCTCGAGCGCCCAACGCGCAGCATTTCCCCGGAGTCACCTAGTGCAG,8350 fluorescence intensity (a.u.)
3,AAGCCCACCTCCAACCAACCACTCTGCCCCAAAACCATTTCGGAGTCACCTAGTGCAG,9080 fluorescence intensity (a.u.)
4,AGGGGCCCTTTCCTAACACTGCCCATTGCCAACCTATCCACGGAGTCACCTAGTGCAG,8720 fluorescence intensity (a.u.)
5,ACCCTTTTGAAAACGCAGCATGAATAATTCATTACCTGTTCGGAGTCACCTAGTGCAG,9120 fluorescence intensity (a.u.)
6,GTACTCATCGGTTCATTGTCCAGCTCCAGCAGTTGATCTTCGGAGTCACCTAGTGCAG,11700 fluorescence intensity (a.u.)
7,ACAGATTGTGTCACATTGTTATTTTCTCACTCTTTTATTTCGGAGTCACCTAGTGCAG,10900 fluorescence intensity (a.u.)
8,TAAAAGAAGGGCTATGGTGTGTACTTGTGTTATTGCTTTTCGGAGTCACCTAGTGCAG,11800 fluorescence intensity (a.u.)
9,CTCATTGTTTCCTCTAAAAAGAGGTATTTCTTATTGGGTTCGGAGTCACCTAGTGCAG,8470 fluorescence intensity (a.u.)
10,GAACCCACATCCCACCATGACGCGCAATTACCTCATTATCCGGAGTCACCTAGTGCAG,17000 fluorescence intensity (a.u.)
11,CTTGTACGTGTTGACGCCATTTGAAGCCTTCCATTTGACGCGGAGTCACCTAGTGCAG,9050 fluorescence intensity (a.u.)
12,TTGTTTGCCATGTTGATGGTATTGTTTACTGCTCTTGAAACGGAGTCACCTAGTGCAG,9770 fluorescence intensity (a.u.)
13,TCTTGGCTTCTTGATGATTTGCTCTTAGCTGCTGTTCTATCGGAGTCACCTAGTGCAG,8400 fluorescence intensity (a.u.)
14,GGGTTGCTTATACTTTCACTTTACACCAAGTTATTTTAAACGGAGTCACCTAGTGCAG,10300 fluorescence intensity (a.u.)
15,AATCTTTTAATTTGTTAAGCTCTCTATCTCTATTTCTATCCGGAGTCACCTAGTGCAG,8180 fluorescence intensity (a.u.)
16,CTCTATTACGAATGCGTGCACATGTGTTTGATTTCCTGTTCGGAGTCACCTAGTGCAG,10100 fluorescence intensity (a.u.)
17,TCCTCATCTTGTGCTCTCAAGTGTTTTAAGTGCTCTCTTTCGGAGTCACCTAGTGCAG,10500 fluorescence intensity (a.u.)
18,TATTTGGCCCACCACAAGTCAATCGCGCCCCTTTCTTCTCCGGAGTCACCTAGTGCAG,8500 fluorescence intensity (a.u.)
19,GAGTTCTTGCGGCGACCACCTATTTTCTTCCCGATTTACTCGGAGTCACCTAGTGCAG,8900 fluorescence intensity (a.u.)
20,TATAAACAAACCACTCGCCGCGCCGCATCAGTCGTAACCACGGAGTCACCTAGTGCAG,8580 fluorescence intensity (a.u.)
21,CAGTTTGAGTTTTTGTTAGTTATTTCGTTTATTTTTTTTTCGGAGTCACCTAGTGCAG,12300 fluorescence intensity (a.u.)

row,Sequence,binding signal
1,ACATTTTTGTTTGCATAGCTCTTTCACATTCATGCATAAGCGGAGTCACCTAGTGCAG,9450 fluorescence intensity (a.u.)
2,TGAGGGATGCTTTTTAAGTTTTTGGGTGTTGGTCAGATCTCGGAGTCACCTAGTGCAG,9910 fluorescence intensity (a.u.)
3,AACACGATCTACTTTCTTCATACGCAGTACTCTCTCCATACGGAGTCACCTAGTGCAG,8350 fluorescence intensity (a.u.)
4,CCGTCACCTTTCTCTGCTCGGCCTGCAGCCCACAAGTGGACGGAGTCACCTAGTGCAG,9510 fluorescence intensity (a.u.)
5,GCCCATAACTAGGCCTGAGCCCATGTAGCCTTCCGTGAACCGGAGTCACCTAGTGCAG,9840 fluorescence intensity (a.u.)
6,GCTTCCTTCTTCTCCCGCGCCCGGCGCCCGCACCGAACCACGGAGTCACCTAGTGCAG,8580 fluorescence intensity (a.u.)
7,ATTTTTACCCTTCTCCTGTGTTTTTGTTGCTGTGATTCAACGGAGTCACCTAGTGCAG,8570 fluorescence intensity (a.u.)
8,ATGGCCGCAACTTGTGCAGATTTTTGTGTGTGAAGAAGAACGGAGTCACCTAGTGCAG,8090 fluorescence intensity (a.u.)
9,CATAAAACACTATAAATCAAGCACTACCTTCACCATTTTTCGGAGTCACCTAGTGCAG,8740 fluorescence intensity (a.u.)
10,ACTATTGACTTTTTTTCTATGTTAGACCATTCATTTTATTCGGAGTCACCTAGTGCAG,12300 fluorescence intensity (a.u.)
11,CGCCCGCGCCATCTTGCGCCGCTACTCACCTCTTACCCTACGGAGTCACCTAGTGCAG,9320 fluorescence intensity (a.u.)
12,CTTGCCTTTTCTGACTCGCTCTCTCTCTCTCTCTCTATATCGGAGTCACCTAGTGCAG,10200 fluorescence intensity (a.u.)
13,CGTTTGTTTTCCATCCCATTTCTCGTTCATCCTCTCCCTGCGGAGTCACCTAGTGCAG,12100 fluorescence intensity (a.u.)
14,ATGATTGTACCACACTGCCTGAGTCTAACTGTGTCGTTTCCGGAGTCACCTAGTGCAG,10200 fluorescence intensity (a.u.)
15,TGTCGGTGCAATCTGGGCAATTTCAGTACTTTGCGAGCATCGGAGTCACCTAGTGCAG,9080 fluorescence intensity (a.u.)
16,GACCGCCAATGATTCTCCTGCGATATCTACTCCTGCATGTCGGAGTCACCTAGTGCAG,10000 fluorescence intensity (a.u.)
17,TAATTAAAACCCTCGTCTAACCCACCGCTATCCGCATTTACGGAGTCACCTAGTGCAG,8290 fluorescence intensity (a.u.)
18,CCCTCGTCATCCGTCCCTTCCCTCCATTCAAACGCGAAAACGGAGTCACCTAGTGCAG,8160 fluorescence intensity (a.u.)
19,TGAGATAGATGCTCCCGCCCTGCCGTCTTCCTCGTCTCCGCGGAGTCACCTAGTGCAG,8150 fluorescence intensity (a.u.)
20,GTGGTGGCGGTGGAGGTGGAGGTGGAGGCGCCGTGGTGCGCGGAGTCACCTAGTGCAG,12600 fluorescence intensity (a.u.)
21,CTATGGCTACCTTTTCCCATTATTTTTTTCACATAGTGTTCGGAGTCACCTAGTGCAG,10200 fluorescence intensity (a.u.)
